Publication PMC2747018
Results are given in words; binding and its absence hold for the method and conditions named. Binding seen in cells or lysates may run through a third protein. These calls come from enrichment with a bait or labelling near it, and not all partners need be listed.

Chains of the proteins cited; added tags and fusions are not shown.
UniProt P09012: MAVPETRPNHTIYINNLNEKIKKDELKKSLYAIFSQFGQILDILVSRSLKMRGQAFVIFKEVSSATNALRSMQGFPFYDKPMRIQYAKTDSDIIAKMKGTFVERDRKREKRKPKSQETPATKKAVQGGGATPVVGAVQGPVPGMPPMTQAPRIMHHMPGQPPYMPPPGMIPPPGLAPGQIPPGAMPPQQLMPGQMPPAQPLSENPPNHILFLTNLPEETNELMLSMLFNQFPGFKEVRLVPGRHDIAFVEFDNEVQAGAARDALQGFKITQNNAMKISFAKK
UniProt P62304: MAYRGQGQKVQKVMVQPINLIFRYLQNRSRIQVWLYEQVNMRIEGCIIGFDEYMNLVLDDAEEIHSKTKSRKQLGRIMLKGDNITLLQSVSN
UniProt P62318: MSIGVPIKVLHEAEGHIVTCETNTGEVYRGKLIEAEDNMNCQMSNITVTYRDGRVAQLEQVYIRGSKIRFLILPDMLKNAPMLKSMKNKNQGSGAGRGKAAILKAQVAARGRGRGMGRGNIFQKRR
UniProt P09234: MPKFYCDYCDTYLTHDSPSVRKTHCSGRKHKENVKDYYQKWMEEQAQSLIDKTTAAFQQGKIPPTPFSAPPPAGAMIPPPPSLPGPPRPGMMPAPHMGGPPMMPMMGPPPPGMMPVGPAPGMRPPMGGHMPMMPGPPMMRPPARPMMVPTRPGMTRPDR
UniProt P62316: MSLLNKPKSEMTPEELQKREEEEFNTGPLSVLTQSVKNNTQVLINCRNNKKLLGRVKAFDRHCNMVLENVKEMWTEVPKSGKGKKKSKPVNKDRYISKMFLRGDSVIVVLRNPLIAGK
UniProt P62308: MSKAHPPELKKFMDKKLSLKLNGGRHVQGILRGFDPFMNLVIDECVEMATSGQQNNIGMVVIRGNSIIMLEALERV

target: U1-A protein of the native human U1 snRNP (human (endogenous in HeLa)) (UniProt P09012); experiment: affinity purification with mass spectrometry; U1 snRNP immunoprecipitated from HeLa nuclear extract with an affinity-purified antibody against U1-A aa 1-14 on Protein A Sepharose (IP150: 20 mM Hepes pH 7.9, 150 mM NaCl, 1.5 mM MgCl2, 0.5 mM DTT, 3 h, 4°C), eluted with the antigenic peptide, 5-20% glycerol gradient; proteins identified by proteomic analysis and LC-MS of the denatured complex; the complex holds U1 snRNA

Substance	binding
Sm-E (from UniProt P62304 1-92)	binds
Sm-D3 (from UniProt P62318 1-126)	binds
U1-C protein of the native human U1 snRNP (from UniProt P09234 1-159)	binds

More lines, now with the values ahead:

binding	Substance
binds	Sm-D2 (from UniProt P62316 1-118)
binds	Sm-G (from UniProt P62308 1-76)
